{"source": "PubChem BioAssay AID743121 (NCATS, 2013)", "purpose": "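Genes whose silencing strengthens cell killing by camptothecin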 (primary screen)", "cell system": "MDA-MB-231 cells, a human breast cancer line", "reagent": "single siRNA against human genes, 20 nM siRNA (0.8 pmol per well)", "time to read-out": "120 h (drug added 48 h after transfection, read 72 h later)", "challenge": "camptothecin 20 nM (about EC30) for 72 h; vehicle 0.1% DMSO in parallel plates", "measurement": "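Cell viability by ATP luminescence (CellTiter-Glo) as % of non-targeting siRNA wells, and the log2 ratio of viability without drug over viability with camptothecin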", "reading the numbers": "log2 vehicle/camptothecin viability: higher = stronger sensitisation to camptothecin; viability with camptothecin: higher = more viable cells", "units": "viability with camptothecin in % of control", "call rule": "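Active genes have an RSA gene-level p-value below 0.001, computed from the ratios of their separate siRNAs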", "note": "In all, the deposit lists about 26,000 reagents; below is a random part of them. Of all reagents, 167 (0.63%) are marked active. 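Calls are per gene from RSA p-values that are not deposited; an individual active-marked siRNA can sensitise only weakly.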 A number with no mark means an inactive call. Not all columns of the deposit are shown."}
{"gene knocked down": "PLCD1", "PubChem SID": "SID164381087", "log2 vehicle/camptothecin viability": 0.174, "viability with camptothecin": 62.9}
{"gene knocked down": "PLCD1", "PubChem SID": "SID164381088", "log2 vehicle/camptothecin viability": -0.251, "viability with camptothecin": 120}
{"gene knocked down": "PLCD1", "PubChem SID": "SID164381089", "log2 vehicle/camptothecin viability": -0.38, "viability with camptothecin": 80.4}
{"gene knocked down": "PLCD1", "PubChem SID": "SID164381091", "log2 vehicle/camptothecin viability": -0.304, "viability with camptothecin": 54.6}
{"gene knocked down": "SELENON", "PubChem SID": "SID164493253", "log2 vehicle/camptothecin viability": -0.0883, "viability with camptothecin": 105}
{"gene knocked down": "SELENON", "PubChem SID": "SID164493254", "log2 vehicle/camptothecin viability": 0.375, "viability with camptothecin": 64.3}
{"gene knocked down": "SELENON", "PubChem SID": "SID164493256", "log2 vehicle/camptothecin viability": -0.119, "viability with camptothecin": 85.4}
{"gene knocked down": "SELENON", "PubChem SID": "SID164493257", "log2 vehicle/camptothecin viability": 0.152, "viability with camptothecin": 72.1}
{"gene knocked down": "FASLG", "PubChem SID": "SID164353823", "log2 vehicle/camptothecin viability": -0.098, "viability with camptothecin": 92.3}
{"gene knocked down": "FASLG", "PubChem SID": "SID164353824", "log2 vehicle/camptothecin viability": -0.0651, "viability with camptothecin": 60.6}
{"gene knocked down": "FASLG", "PubChem SID": "SID164353825", "log2 vehicle/camptothecin viability": 0.0984, "viability with camptothecin": 90.7}
{"gene knocked down": "FASLG", "PubChem SID": "SID164353826", "log2 vehicle/camptothecin viability": -0.562, "viability with camptothecin": 90.2}
{"gene knocked down": "CTNND2", "PubChem SID": "SID164360432", "log2 vehicle/camptothecin viability": -0.123, "viability with camptothecin": 90.4}
{"gene knocked down": "CTNND2", "PubChem SID": "SID164360435", "log2 vehicle/camptothecin viability": 0.467, "viability with camptothecin": 28.3}
{"gene knocked down": "CTNND2", "PubChem SID": "SID164360436", "log2 vehicle/camptothecin viability": -0.165, "viability with camptothecin": 95.9}
{"gene knocked down": "MARS1", "PubChem SID": "SID164374853", "log2 vehicle/camptothecin viability": -0.123, "viability with camptothecin": 72.8}
{"gene knocked down": "MARS1", "PubChem SID": "SID164374854", "log2 vehicle/camptothecin viability": -0.42, "viability with camptothecin": 79.7}
{"gene knocked down": "MARS1", "PubChem SID": "SID164374855", "log2 vehicle/camptothecin viability": -0.0713, "viability with camptothecin": 27.9}
{"gene knocked down": "MARS1", "PubChem SID": "SID164374856", "log2 vehicle/camptothecin viability": -0.0661, "viability with camptothecin": 51.5}
{"gene knocked down": "C1R", "PubChem SID": "SID164355817", "log2 vehicle/camptothecin viability": -0.107, "viability with camptothecin": 21.8}
{"gene knocked down": "C1R", "PubChem SID": "SID164355818", "log2 vehicle/camptothecin viability": -0.754, "viability with camptothecin": 75.9}
{"gene knocked down": "C1R", "PubChem SID": "SID164355822", "log2 vehicle/camptothecin viability": 0.382, "viability with camptothecin": 32.1}
{"gene knocked down": "C1R", "PubChem SID": "SID164355823", "log2 vehicle/camptothecin viability": -0.354, "viability with camptothecin": 65.3}

Just “log2 vehicle/camptothecin viability”, for 5 of the entries above:
PLCD1 [SID164381087]: 0.174
PLCD1 [SID164381088]: -0.251
PLCD1 [SID164381089]: -0.38
PLCD1 [SID164381091]: -0.304
SELENON [SID164493253]: -0.0883

The list goes on:
{"gene knocked down": "SFRP5", "PubChem SID": "SID164387680", "log2 vehicle/camptothecin viability": -0.367, "viability with camptothecin": 85.4}
{"gene knocked down": "SFRP5", "PubChem SID": "SID164387681", "log2 vehicle/camptothecin viability": -0.0238, "viability with camptothecin": 86.5}
{"gene knocked down": "SFRP5", "PubChem SID": "SID164387683", "log2 vehicle/camptothecin viability": 0.0541, "viability with camptothecin": 56.4}
{"gene knocked down": "SFRP5", "PubChem SID": "SID164387685", "log2 vehicle/camptothecin viability": 0.117, "viability with camptothecin": 42.9}
{"gene knocked down": "PRSS12", "PubChem SID": "SID164397922", "log2 vehicle/camptothecin viability": 0.0493, "viability with camptothecin": 78.1}
{"gene knocked down": "PRSS12", "PubChem SID": "SID164397923", "log2 vehicle/camptothecin viability": -0.0984, "viability with camptothecin": 96}
{"gene knocked down": "PRSS12", "PubChem SID": "SID164397924", "log2 vehicle/camptothecin viability": -0.194, "viability with camptothecin": 48.2}
{"gene knocked down": "GRIN1", "PubChem SID": "SID164367691", "log2 vehicle/camptothecin viability": 0.116, "viability with camptothecin": 89.4}
{"gene knocked down": "GRIN1", "PubChem SID": "SID164367692", "log2 vehicle/camptothecin viability": 0.284, "viability with camptothecin": 54.1}
{"gene knocked down": "GRIN1", "PubChem SID": "SID164367695", "log2 vehicle/camptothecin viability": -0.459, "viability with camptothecin": 75.4}
{"gene knocked down": "PGGT1B", "PubChem SID": "SID164380451", "log2 vehicle/camptothecin viability": -0.438, "viability with camptothecin": 102}
{"gene knocked down": "PGGT1B", "PubChem SID": "SID164380452", "log2 vehicle/camptothecin viability": -0.606, "viability with camptothecin": 78.1}
{"gene knocked down": "PGGT1B", "PubChem SID": "SID164380456", "log2 vehicle/camptothecin viability": -0.247, "viability with camptothecin": 12.4}
{"gene knocked down": "PGGT1B", "PubChem SID": "SID164380457", "log2 vehicle/camptothecin viability": -0.259, "viability with camptothecin": 103}
